Earlier results as cited in US20240279226A1, “ERGOLINE-DERIVED AGONISTS OF THE 5-HT2A RECEPTOR” (priority 2021, published 2024).

Amino acid sequences for entries named in this document (tags omitted).
UniProt P41595, whole entry, species assumed: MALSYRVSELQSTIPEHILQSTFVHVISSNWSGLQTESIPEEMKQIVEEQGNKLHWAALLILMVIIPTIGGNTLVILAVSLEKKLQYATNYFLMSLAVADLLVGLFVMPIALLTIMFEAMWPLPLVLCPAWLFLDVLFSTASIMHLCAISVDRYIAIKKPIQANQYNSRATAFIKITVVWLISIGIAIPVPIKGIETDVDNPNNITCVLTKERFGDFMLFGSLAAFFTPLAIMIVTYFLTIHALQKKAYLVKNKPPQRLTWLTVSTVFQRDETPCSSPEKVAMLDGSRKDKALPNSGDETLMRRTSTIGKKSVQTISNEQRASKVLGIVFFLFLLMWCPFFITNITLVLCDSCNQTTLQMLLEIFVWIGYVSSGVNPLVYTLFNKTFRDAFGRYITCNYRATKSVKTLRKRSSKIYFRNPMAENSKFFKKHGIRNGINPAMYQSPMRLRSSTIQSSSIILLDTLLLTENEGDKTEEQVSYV

Target: 5HT2B (Homo sapiens (Human), UniProt P41595)
Conditions: literature report; cited from earlier work

## CCN(CC)C(=O)N[C@H]1C=C2c3cccc4[nH]cc(c34)C[C@H]2N(C)C1 [Lisuride]
  activity type at 5HT2B: partial agoinst
